Literature values in PMC7961214 (Advanced Pharmaceutical Bulletin, 2020).

Details: cited from earlier work

For `COc1cc(/C=C/C(=O)CC(=O)/C=C/c2ccc(O)c(OC)c2)ccc1O` [Curcumin particles, Curcumin], the “solubility in DMSO” value (no reference given) is given as 11000 µg/mL and the solubility in water (pH 7.4 ref 12) is given as 0.4 µg/mL.
